These are yes or no findings as the source states them, for the method shown. For some assays here: In cells and extracts the contact can be indirect. Some binding calls cover weakened binding; strength is not graded here.
Tests used:
[1] = target: GST-tagged PAK1 (Y270-H545) (human) (UniProt Q13153); assay: pull-down; GST fusion protein mixed with Triton X-100 lysate of transfected cells or human brain overnight at 4°C, captured on glutathione-Sepharose 4B, washed in 0.4 M NaCl buffer, Western blot; only the target purified
[2] = target: GST-tagged VHS domain of GGA2 (M1-L167) (human) (UniProt Q9UJY4); assay: as above
[3] = target: cytoplasmic domain of human sortilin (K779-E831) in fusion with LexA (human) (UniProt Q99523); assay: two-hybrid; one-by-one tests of bait (pB27) and prey plasmids, spot plated on -Leu/-Trp/-His plates with 3-AT; plasmids without inserts as negative controls
[4] = target: sortilin-cd S15A (Ser793 to Ala), yeast two-hybrid bait (human) (UniProt Q99523); assay: as above
[5] = target: cytoplasmic domain of human sortilin (K779-E831) in fusion with LexA (human) (UniProt Q99523); assay: two-hybrid; library screen: sortilin-cd bait (pB27, LexA) in yeast L40GAL4 mated with an adult human brain random-primed cDNA library in Y187; selection on -Leu/-Trp/-His
[6] = target: sortilin-cd deletion mutant cd 1-27 (K779-D805) (human) (UniProt Q99523); assay: two-hybrid; one-by-one tests of bait (pB27) and prey plasmids, spot plated on -Leu/-Trp/-His plates with 3-AT; plasmids without inserts as negative controls

By UniProt entry, the sequences of proteins in these tests, tags left out. Where a name states a change or a piece, a line headed by the entry shows the natural chain unless it says otherwise. Chains listed by the source or under a name are the forms on record and can include a tag or linker. Residues count along the entry.
UniProt Q13153: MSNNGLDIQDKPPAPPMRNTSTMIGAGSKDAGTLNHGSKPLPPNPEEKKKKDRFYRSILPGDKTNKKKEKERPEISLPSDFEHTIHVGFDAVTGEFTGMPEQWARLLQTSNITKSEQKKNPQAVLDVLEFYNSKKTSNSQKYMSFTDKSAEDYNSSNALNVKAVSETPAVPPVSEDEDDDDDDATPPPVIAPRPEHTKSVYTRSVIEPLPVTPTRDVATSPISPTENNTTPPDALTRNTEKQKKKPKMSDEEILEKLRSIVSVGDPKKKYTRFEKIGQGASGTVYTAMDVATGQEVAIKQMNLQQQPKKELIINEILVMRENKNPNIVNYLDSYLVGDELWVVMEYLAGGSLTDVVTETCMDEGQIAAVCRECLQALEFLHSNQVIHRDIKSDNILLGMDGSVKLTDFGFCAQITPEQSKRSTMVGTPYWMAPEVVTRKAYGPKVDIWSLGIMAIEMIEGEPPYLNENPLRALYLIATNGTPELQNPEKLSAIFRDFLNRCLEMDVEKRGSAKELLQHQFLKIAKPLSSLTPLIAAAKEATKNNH
GST-tagged PAK1 (Y270-H545): residues 270-545 of Q13153
PAK1-T271-H545 (yeast two-hybrid prey): residues 271-545 of Q13153
UniProt Q9UJY4, residues 1-167: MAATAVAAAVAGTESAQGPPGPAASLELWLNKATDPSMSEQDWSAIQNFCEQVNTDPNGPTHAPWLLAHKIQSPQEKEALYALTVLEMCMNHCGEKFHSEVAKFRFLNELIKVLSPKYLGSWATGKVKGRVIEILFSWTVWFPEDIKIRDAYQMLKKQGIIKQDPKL
UniProt Q99523: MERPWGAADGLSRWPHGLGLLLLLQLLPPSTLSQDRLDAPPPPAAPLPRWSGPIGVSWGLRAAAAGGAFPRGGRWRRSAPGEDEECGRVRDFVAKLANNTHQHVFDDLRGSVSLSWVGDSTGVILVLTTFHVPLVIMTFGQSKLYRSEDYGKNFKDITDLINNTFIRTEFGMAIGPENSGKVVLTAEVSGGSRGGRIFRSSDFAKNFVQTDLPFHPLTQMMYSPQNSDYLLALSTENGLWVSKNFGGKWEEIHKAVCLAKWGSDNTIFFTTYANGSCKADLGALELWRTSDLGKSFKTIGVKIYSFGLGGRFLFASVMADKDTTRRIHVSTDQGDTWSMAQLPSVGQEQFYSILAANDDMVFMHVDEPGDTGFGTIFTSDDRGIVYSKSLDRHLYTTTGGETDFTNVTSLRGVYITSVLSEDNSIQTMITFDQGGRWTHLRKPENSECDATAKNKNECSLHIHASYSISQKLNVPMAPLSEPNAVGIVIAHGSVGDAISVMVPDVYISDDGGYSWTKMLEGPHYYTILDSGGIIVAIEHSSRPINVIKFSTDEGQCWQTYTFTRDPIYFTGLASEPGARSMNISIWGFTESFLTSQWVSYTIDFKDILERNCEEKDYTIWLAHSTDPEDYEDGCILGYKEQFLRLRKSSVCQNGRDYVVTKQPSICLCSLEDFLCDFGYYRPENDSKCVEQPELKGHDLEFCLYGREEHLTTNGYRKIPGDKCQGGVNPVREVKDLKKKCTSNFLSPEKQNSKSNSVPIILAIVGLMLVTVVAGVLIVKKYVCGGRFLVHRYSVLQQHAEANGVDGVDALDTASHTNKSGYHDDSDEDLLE
full-length human sortilin expressed in CHO cells: residues 78-831 of Q99523
cytoplasmic domain of human sortilin (K779-E831) in fusion with LexA: residues 779-831 of Q99523
sortilin-cd deletion mutant cd 1-27 (K779-D805): residues 779-805 of Q99523
UniProt O75914, residues 311-559: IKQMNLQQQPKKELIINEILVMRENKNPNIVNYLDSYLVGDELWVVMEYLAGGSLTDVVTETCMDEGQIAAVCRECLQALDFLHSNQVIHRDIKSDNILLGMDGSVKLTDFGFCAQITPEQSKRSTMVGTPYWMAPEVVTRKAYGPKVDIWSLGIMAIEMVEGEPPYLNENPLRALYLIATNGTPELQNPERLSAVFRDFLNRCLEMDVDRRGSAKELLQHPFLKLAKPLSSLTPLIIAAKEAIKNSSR

binding [1] | binding [2] | binding [3] | binding [4] | binding [5] | binding [6] | Substance
binds | binds |  |  |  |  | endogenous sortilin from human brain (from UniProt Q99523 78-831) (receptor)
 |  | binds | binds | binds |  | PAK3-I317-R565 (yeast two-hybrid prey) (from UniProt O75914-4 317-565) (domain or fragment)
binds | binds |  |  |  |  | full-length human sortilin expressed in CHO cells (from UniProt Q99523-1 78-831) (receptor)
 |  | binds | binds | binds | binds | PAK1-T271-H545 (yeast two-hybrid prey) (from UniProt Q13153-1 271-545) (domain or fragment)

Reference: PMC6965034
